Measured values from patent US20260209267 (published 2026).

Test: general procedure: Fmoc solid-phase peptide synthesis; 2-chlorotrityl chloride resin (100-200 mesh, 1% DVB), Fmoc-Asp(O-Trt(2-Cl)-resin) amides; COMU/DIPEA (cyclisation)
Settings: for step yield: recovery rate

Substance | purity (crude or final not stated) (whole synthesis, HPLC peak area percentage, scale of the general procedure usually 100 mg resin per reaction vessel, run 1) [%] | final HPLC purity (purification step, HPLC peak area percentage) [% purity] | final HPLC purity (purification step, peak area percentage, run 1) [%] | final HPLC purity (purification step, peak area percentage, run 2) [% purity] | step yield (purification step, run 1) [%] | step yield (purification step, run 2) | final HPLC purity (whole synthesis, 220 nm, scale of the general procedure usually 100 mg resin per reaction vessel) | isolated yield (whole synthesis, scale of the general procedure usually 100 mg resin per reaction vessel) [%]
(3S,6S,9S,12S,16S,19S,25S,28S,31S,36aS)-25,28-benzyl-19-((R)-1-hydroxyethyl)-3,31-diisobutyl-9-isopropyl-2,6,8,15,16,21,24,27,30-nonamethyl-12-(piperidine-1-carbonyl)tetracosahydropyrrolo[2,1-1][1,4,7,10,13,16,19,22,25,28,31]undecaazacyclotetratriacontin-1 | 85.7 |  |  |  |  |  |  | 
(3S,6S,9S,12S,18S,22S,25S,28S,31S,34S,37S)-6-(cyclohexylmethyl)-31-(cyclopentylmethyl)-34-[(3,4-difluorophenyl)methyl]-28-[(4-fluorophenyl)methyl]-3-isobutyl-25-isopropyl-9,10,18,19,26,29,35-heptamethyl-22-(pyrrolidin-1-carbonyl)-1,4,7,10,16,19,23,26,29,32,3 |  | 88 | 90 | 93 | 82 | recovery rate 73% | 84% purity [peak area percentage] | 68
